{
  "source": "patent EP4635575A1",
  "binders": {"B1": {"name": "anti-C4d mAb2 monoclonal antibody (antibody, human IgG1, kappa, V domains shown)", "VH": "QSVEESGGRLVTPGTPLTLTCTVSGFSLSSYAMGWFRQAPGKGLEWIGFINIGGRASYASWAKGRFTISKTSTTVDLKMTSPTTEDTATYFCARGRAYTLTGGTYTRAFDPWGPGTLVTVSS", "VL": "AQVLTQTASPVSAAVGSTVTINCQSSQKVYGNNNLAWYRQKPGQPPKVLIYAASTLASGVPSRFKGYGSGTQFTLTISDLECDDAATYYCAGAYGGDIYPFGGGTELEIKR"}},
  "biological_target": "T1, C4d fragment of the C4 complement protein (human) (UniProt P0C0L4)",
  "T1 sequence (looked up)": "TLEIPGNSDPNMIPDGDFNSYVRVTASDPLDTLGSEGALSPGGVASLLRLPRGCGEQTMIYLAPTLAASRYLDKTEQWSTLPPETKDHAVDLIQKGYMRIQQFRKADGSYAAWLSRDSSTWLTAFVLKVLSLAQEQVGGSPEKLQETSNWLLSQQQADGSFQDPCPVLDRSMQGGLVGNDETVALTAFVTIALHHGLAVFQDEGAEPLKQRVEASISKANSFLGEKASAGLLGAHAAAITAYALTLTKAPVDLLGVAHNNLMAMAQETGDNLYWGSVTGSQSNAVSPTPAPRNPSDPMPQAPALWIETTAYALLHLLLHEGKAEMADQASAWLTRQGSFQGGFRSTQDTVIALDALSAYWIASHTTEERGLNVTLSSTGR",
  "assay": "ELISA",
  "note": "These are yes or no findings as the source states them, for the method shown. Some entries that bind do so weakly or less than the wild type.",
  "data": [
    {"binder": "B1", "values": [
      {"measurement": "binding", "result": "binds"}
    ]}
  ]
}
